Binding data for nine substances are collected here from PMC11218997, “Human cytomegalovirus deploys molecular mimicry to recruit VPS4A to sites of virus assembly” (PLOS Pathogens, 2024).

Results are given in words; binding and its absence hold for the method and conditions named. For part of these data: In cells and extracts the contact can be indirect. For part of these data: Binding can be weak; no strength is given. For part of these data: Sequences can lack the tags named with a protein.

For test [1], the target named is T1, VPS4A MIT domain (residues 1–84) (human) (UniProt Q9UN37).
T1 sequence: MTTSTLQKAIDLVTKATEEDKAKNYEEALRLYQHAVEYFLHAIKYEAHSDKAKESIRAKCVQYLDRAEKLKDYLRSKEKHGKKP
The experiment in a line: ITC; titrants (GST-pUL71, GST-CHMP6 or peptides) titrated into VPS4A MIT domain in the cell; 25°C; 50 mM HEPES pH 8, 100 mM NaCl, 0.5 mM TCEP; 19×2 μL or 12×3 μL injections; one-site binding model; both purified. On the technique in general: Isothermal titration calorimetry measures the heat released or taken up as one component is titrated into another.

The target in test [2] is T2, Human VPS4A-FLAG (human) (UniProt Q9UN37).
T2 sequence: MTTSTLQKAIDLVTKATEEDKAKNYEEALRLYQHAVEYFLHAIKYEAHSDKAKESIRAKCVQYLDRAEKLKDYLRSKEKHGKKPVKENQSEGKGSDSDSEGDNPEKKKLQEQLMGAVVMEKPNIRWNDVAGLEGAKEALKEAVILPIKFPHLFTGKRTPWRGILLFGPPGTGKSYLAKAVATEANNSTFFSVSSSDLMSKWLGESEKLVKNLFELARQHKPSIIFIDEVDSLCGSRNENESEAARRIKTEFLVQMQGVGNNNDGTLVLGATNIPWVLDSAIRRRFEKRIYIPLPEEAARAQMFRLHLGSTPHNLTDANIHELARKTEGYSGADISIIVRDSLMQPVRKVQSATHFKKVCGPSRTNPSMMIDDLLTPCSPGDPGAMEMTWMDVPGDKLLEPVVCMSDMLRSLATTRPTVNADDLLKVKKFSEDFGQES
The experiment in a line: co-IP; anti-FLAG (M2) on Protein G Dynabeads from lysates of co-transfected HEK293FT cells, 48 h; lysis buffer 50 mM Tris-HCl pH 8.0, 150 mM NaCl, 5 mM EDTA, 0.5% NP-40; 1 h at room temperature; immunoblot.

Take “GST-pUL71 (310–336) (domain or fragment)”: the binding entry in test [1] is recorded as “no binding”. “C-terminally HA-tagged EBV BSRF1 (Epstein Barr virus (EBV))”: the binding entry in test [2] is reported as “no binding”.

Consider HCMV pUL71 (wild type, full length), for which the binding entry in test [2] is reported as “binds”.

As for HCMV pUL71 P318A, in test [2], the binding result is “binds”. Regarding “GST-pUL71(283–361) PPAA (domain or fragment)”, the binding result in test [1] is reported as “no binding”. Consider “C-terminally HA-tagged HCMV pUL71 (human cytomegalovirus (HCMV))”, for which the binding result in test [2] is listed as “binds”. For HCMV pUL71 P315A, the binding entry in test [2] is “binds”. Regarding HCMV pUL71 V317D, in test [2], the binding result is given as “no binding”. The same measure, in the same setting: to HCMV pUL71 P315A+P318A (PPAA) belongs “no binding”.
